Here are results for 1 molecule from article PMC12519566, “A TOM1 variant impairs interaction with TOLLIP, autophagosome-lysosome fusion and regulation of innate immunity” (Disease Models & Mechanisms, 2025).

Results are given in words; binding and its absence hold for the method and conditions named. Binding seen in cells or lysates may run through a third protein. These calls come from enrichment with a bait or labelling near it, and not all partners need be listed.

The target in the assay is TOM1 WT, MYC-BirA fusion (BioID bait) (UniProt O60784). The assay is described as follows: proximity labelling; BioID with mass spectrometry; Flp-In T-REx 293 cells induced with 2 µg/ml doxycycline and 50 µM biotin for 24 h; Strep-Tactin sepharose; three biological replicates.

B1: myosin VI (natural protein, human (endogenous in Flp-In T-REx 293), UniProt Q9UM54 1-1294, looked up)
chain: MEDGKPVWAPHPTDGFQMGNIVDIGPDSLTIEPLNQKGKTFLALINQVFPAEEDSKKDVEDNCSLMYLNEATLLHNIKVRYSKDRIYTYVANILIAVNPYFDIPKIYSSEAIKSYQGKSLGTRPPHVFAIADKAFRDMKVLKMSQSIIVSGESGAGKTENTKFVLRYLTESYGTGQDIDDRIVEANPLLEAFGNAKTVRNNNSSRFGKFVEIHFNEKSSVVGGFVSHYLLEKSRICVQGKEERNYHIFYRLCAGASEDIREKLHLSSPDNFRYLNRGCTRYFANKETDKQILQNRKSPEYLKAGSMKDPLLDDHGDFIRMCTAMKKIGLDDEEKLDLFRVVAGVLHLGNIDFEEAGSTSGGCNLKNKSAQSLEYCAELLGLDQDDLRVSLTTRVMLTTAGGTKGTVIKVPLKVEQANNARDALAKTVYSHLFDHVVNRVNQCFPFETSSYFIGVLDIAGFEYFEHNSFEQFCINYCNEKLQQFFNERILKEEQELYQKEGLGVNEVHYVDNQDCIDLIEAKLVGILDILDEENRLPQPSDQHFTSAVHQKHKDHFRLTIPRKSKLAVHRNIRDDEGFIIRHFAGAVCYETTQFVEKNNDALHMSLESLICESRDKFIRELFESSTNNNKDTKQKAGKLSFISVGNKFKTQLNLLLDKLRSTGASFIRCIKPNLKMTSHHFEGAQILSQLQCSGMVSVLDLMQGGYPSRASFHELYNMYKKYMPDKLARLDPRLFCKALFKALGLNENDYKFGLTKVFFRPGKFAEFDQIMKSDPDHLAELVKRVNHWLTCSRWKKVQWCSLSVIKLKNKIKYRAEACIKMQKTIRMWLCKRRHKPRIDGLVKVGTLKKRLDKFNEVVSVLKDGKPEMNKQIKNLEISIDTLMAKIKSTMMTQEQIQKEYDALVKSSEELLSALQKKKQQEEEAERLRRIQEEMEKERKRREEDEKRRRKEEEERRMKLEMEAKRKQEEEERKKREDDEKRIQAEVEAQLARQKEEESQQQAVLEQERRDRELALRIAQSEAELISDEAQADLALRRSLDSYPVSKNDGTRPKMTPEQMAKEMSEFLSRGPAVLATKAAAGTKKYDLSKWKYAELRDTINTSCDIELLAACREEFHRRLKVYHAWKSKNKKRNTETEQRAPKSVTDYDFAPFLNNSPQQNPAAQIPARQREIEMNRQQRFFRIPFIRPADQYKDPQSKKKGWWYAHFDGPWIARQMELHPDKPPILLVAGKDDMEMCELNLEETGLTRKRGAEILPRQFEEIWERCGGIQYLQNAIESRQARPTYATAMLQSLLK
notes: myosin VI, endogenous protein found by proximity labeling mass spectrometry; source: endogenous, Flp-In T-REx 293 cells
For B1, the binding result is given as “binds”.
